This passage reports binding results from article PMC12325741 (2025).

Amino acid sequences for entries named in this document (tags omitted). Residues count along the entry.
UniProt P08727: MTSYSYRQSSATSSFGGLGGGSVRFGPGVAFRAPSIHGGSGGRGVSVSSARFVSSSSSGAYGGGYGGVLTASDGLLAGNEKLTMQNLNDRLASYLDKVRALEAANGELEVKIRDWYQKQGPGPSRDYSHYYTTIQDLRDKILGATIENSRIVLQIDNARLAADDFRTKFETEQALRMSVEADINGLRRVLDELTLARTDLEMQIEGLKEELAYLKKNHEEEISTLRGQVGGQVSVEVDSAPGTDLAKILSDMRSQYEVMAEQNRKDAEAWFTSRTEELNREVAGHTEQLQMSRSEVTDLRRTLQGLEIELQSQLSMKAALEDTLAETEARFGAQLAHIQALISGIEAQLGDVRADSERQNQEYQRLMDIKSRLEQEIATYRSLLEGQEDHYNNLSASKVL
UniProt Q04721, residues 26-2471: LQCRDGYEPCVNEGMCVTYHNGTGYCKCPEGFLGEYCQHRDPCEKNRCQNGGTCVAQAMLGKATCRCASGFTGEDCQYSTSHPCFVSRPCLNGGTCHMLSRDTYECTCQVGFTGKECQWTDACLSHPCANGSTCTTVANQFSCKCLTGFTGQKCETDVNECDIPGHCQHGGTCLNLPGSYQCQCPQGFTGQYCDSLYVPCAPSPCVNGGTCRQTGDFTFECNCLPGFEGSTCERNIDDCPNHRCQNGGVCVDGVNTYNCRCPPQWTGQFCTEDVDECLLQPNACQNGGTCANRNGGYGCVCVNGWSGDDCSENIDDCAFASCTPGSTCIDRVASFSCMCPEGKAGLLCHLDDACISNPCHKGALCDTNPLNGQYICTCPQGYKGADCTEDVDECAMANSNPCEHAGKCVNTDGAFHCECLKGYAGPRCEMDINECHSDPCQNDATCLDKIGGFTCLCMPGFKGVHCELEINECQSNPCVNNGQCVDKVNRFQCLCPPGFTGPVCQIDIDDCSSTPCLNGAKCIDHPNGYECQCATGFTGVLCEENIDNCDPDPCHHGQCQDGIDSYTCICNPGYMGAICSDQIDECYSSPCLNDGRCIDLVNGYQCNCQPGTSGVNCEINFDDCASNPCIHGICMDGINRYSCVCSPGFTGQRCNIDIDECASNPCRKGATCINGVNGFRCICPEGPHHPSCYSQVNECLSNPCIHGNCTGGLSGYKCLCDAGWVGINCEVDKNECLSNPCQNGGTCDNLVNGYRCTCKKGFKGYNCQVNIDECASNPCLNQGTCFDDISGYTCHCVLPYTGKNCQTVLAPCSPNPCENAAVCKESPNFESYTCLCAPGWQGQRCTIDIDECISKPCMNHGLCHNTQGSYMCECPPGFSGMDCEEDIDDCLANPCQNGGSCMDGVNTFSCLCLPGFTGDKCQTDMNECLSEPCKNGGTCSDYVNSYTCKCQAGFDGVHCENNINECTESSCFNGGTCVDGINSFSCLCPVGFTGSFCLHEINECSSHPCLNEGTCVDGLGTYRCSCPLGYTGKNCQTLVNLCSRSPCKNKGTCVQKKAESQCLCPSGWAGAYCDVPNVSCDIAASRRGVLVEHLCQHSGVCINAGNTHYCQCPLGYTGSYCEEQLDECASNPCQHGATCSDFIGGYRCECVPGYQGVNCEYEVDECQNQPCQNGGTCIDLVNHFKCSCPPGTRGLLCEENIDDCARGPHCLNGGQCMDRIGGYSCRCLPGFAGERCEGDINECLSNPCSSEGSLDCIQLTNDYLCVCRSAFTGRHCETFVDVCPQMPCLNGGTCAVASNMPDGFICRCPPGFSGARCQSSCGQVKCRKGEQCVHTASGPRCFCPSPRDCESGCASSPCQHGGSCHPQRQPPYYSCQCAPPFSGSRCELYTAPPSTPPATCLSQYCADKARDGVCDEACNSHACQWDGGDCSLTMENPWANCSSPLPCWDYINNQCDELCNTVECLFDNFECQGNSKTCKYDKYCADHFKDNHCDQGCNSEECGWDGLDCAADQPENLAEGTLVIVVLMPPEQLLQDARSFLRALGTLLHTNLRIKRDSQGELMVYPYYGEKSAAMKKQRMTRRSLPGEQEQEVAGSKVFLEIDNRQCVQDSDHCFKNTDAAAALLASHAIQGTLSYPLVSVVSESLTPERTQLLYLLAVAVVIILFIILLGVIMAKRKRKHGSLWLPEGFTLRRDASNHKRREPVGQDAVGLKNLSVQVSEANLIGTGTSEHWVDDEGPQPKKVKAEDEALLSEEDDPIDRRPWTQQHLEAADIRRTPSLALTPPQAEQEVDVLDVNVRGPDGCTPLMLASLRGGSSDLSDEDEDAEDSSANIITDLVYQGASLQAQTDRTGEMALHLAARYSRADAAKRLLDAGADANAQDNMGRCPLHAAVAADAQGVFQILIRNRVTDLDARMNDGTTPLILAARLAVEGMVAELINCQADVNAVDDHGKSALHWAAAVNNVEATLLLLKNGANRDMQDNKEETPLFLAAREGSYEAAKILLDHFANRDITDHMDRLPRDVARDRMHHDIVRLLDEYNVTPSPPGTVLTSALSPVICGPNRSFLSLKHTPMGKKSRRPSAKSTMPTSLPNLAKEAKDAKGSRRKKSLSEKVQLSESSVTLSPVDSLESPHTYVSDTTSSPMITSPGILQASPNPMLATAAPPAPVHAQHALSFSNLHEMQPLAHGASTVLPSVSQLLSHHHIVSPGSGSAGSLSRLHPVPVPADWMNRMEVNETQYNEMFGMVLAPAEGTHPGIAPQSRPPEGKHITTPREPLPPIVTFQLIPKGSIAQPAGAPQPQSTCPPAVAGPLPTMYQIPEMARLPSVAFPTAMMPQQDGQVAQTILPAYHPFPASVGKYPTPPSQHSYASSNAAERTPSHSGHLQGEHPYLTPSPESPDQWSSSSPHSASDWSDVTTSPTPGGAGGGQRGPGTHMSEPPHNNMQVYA

Results are given in words; binding and its absence hold for the method and conditions named. In cells and extracts the contact can be indirect. These calls come from enrichment with a bait or labelling near it, and not all partners need be listed.

This assay addresses CK19 (human (endogenous in Hucct1)) (UniProt P08727). Briefly: affinity purification with mass spectrometry; Co-IP with anti-CK19 from Hucct1 cells treated with TNFα (50 ng/mL) for 72 h; silver-stained gel, mass spectrometry.

“Notch2 (from UniProt Q04721 26-2471) (receptor)”: the binding result is “binds”.
